Laboratory results: PubChem BioAssay AID1259308 (NCATS, 2017)
Purpose: 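Genes whose loss raises luciferase production in HEK293 cells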 (primary screen). Cell system: human HEK293 embryonic kidney cells stably expressing firefly luciferase (HEK-CMV-Luc2-Hygro). Reagents: single siRNA against human genes, 0.8 pmol siRNA per well. Time to read-out: 72 h. Measured: 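Luciferase light (ONE-Glo) measured on one replicate plate set and viability (CellTiter-Glo) on the other, scaled to a negative control siRNA, with robust z-scores and luciferase per cell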. Scale: total luciferase, z-score and total luciferase, % of control: higher = more reporter protein produced. Call rule: 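An siRNA counts as active if its total luciferase robust z-score exceeds 3; genes with two or more such siRNAs out of three were retested with fresh siRNAs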. Meaning of the calls: active = raised luciferase; inactive = no rise.
Here is one part, drawn at random, of about 59,000 reagents. Of all reagents, about 1,510 (2.6%) got an active call. 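Calls use total luciferase alone and ignore viability, so some active siRNAs may act by altering cell number.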 Not all columns of the deposit are shown. Reagent sequences are not shown.

| gene symbol | PubChem SID | total luciferase, z-score | total luciferase, % of control | call |
| --- | --- | --- | --- | --- |
| LRP1 | SID160776719 | -0.173 | 78.4 | inactive |
| LRP1 | SID160776720 | -0.752 | 66.9 | inactive |
| LRP1 | SID160776722 | -0.984 | 62.3 | inactive |
| SLC29A4 | SID160761911 | -1.13 | 59.3 | inactive |
| SLC29A4 | SID160761912 | -1.76 | 47 | inactive |
| SLC29A4 | SID160761913 | 1.83 | 118 | inactive |
| OPRM1 | SID160778403 | -0.659 | 68.8 | inactive |
| OPRM1 | SID160778404 | -0.154 | 78.8 | inactive |
| OPRM1 | SID160778405 | 0.497 | 91.8 | inactive |
| CCDC190 | SID160764258 | -0.943 | 63.1 | inactive |
| CCDC190 | SID160764259 | 0.311 | 88.1 | inactive |
| CCDC190 | SID160764260 | 0.0686 | 83.3 | inactive |
| TCP10L2 | SID160767237 | -0.157 | 78.8 | inactive |
| TCP10L2 | SID160767238 | -0.782 | 66.3 | inactive |
| TCP10L2 | SID160767239 | 0.278 | 87.4 | inactive |
| DCAF17 | SID160750021 | 1.22 | 106 | inactive |
| DCAF17 | SID160750023 | -0.792 | 66.1 | inactive |
| DCAF17 | SID160750024 | -0.814 | 65.7 | inactive |
| USP12 | SID160761228 | -0.968 | 62.6 | inactive |
| USP12 | SID160761229 | 2.16 | 125 | inactive |
| USP12 | SID160761230 | 0.257 | 87 | inactive |
| NFRKB | SID160731288 | 1.78 | 117 | inactive |
| NFRKB | SID160778039 | -0.0692 | 80.5 | inactive |
| NFRKB | SID160778040 | 0.307 | 88 | inactive |

Laid out differently: entries from further up.
gene symbol,PubChem SID,"total luciferase, z-score","total luciferase, % of control",call
LRP1,SID160776719,-0.173,78.4,inactive
LRP1,SID160776720,-0.752,66.9,inactive
